## Primary screen of a compound library

From ChEMBL document CHEMBL3988442, “University of Dundee, Small-Polar-MMV Screening Library” (2021).

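Whole-parasite assay of Trypanosoma brucei over 72 hours; the read-out is not stated. Tested at 30 µM. Direction is inferred from retests: higher values go with stronger inhibition. Values scatter widely below zero; nearly all retest evidence comes from the higher of the two concentrations used. Size under these conditions: about 64,000 compounds, about 940 of them at 50% or above in at least one test.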

Each number is a percent effect as filed.
How 0% and 100% were set is not recorded. Most values in the screen are low, and negative values occur.
This is an unselected part of the compounds tested.

- COCCOC1CCN(C(=O)NCc2cc(C)oc2C)CC1 | -34.1%
- CN(Cc1ccc(-n2cncn2)cc1)Cc1ncc[nH]1 | -2.048%
- COc1ccc(C(=O)N2CCC(Nc3ccc(C)nn3)CC2)c(F)c1 | -13.3%
- NC(=O)N1CCCC(C(=O)NCCOc2ccc(F)cc2F)C1 (stereo unspecified) | -7.485%
- O=C(NCCCC(=O)N1Cc2ccccc2C1)NCc1ccsc1 | -47.09%
- CN(Cc1cccc(-n2cccn2)c1)Cc1c[nH]cn1 | -27.72%
- Cc1cc2ccccc2n1CCC(=O)N1CCCC2(CC1)CNC(=O)O2 (stereo unspecified) | -25.99%
- CC(C)c1nnc2n1CC(CNC/C=C/c1ccccc1)CC2 (stereo unspecified) | 7.913%
- Cc1nc(C)n(C2CCCN(C(=O)c3cc(C(N)=O)cs3)C2)n1 (stereo unspecified) | 18.02%
- Cc1cccc(CN2CCC(n3cc(CCO)nn3)CC2)c1C | 1.422%
- CN(C)CC1(O)CCN(C(=O)Cc2ccc3c(c2)CCCC3)C1 (stereo unspecified) | 10.39%
- COc1c(CNC2CCOc3c(Cl)cccc32)c(C(C)C)nn1C (stereo unspecified) | -13.32%
- O=C(NCc1cccnc1)N1CCSCC1CCO (stereo unspecified) | -74.21%
- O=C1Nc2ccccc2/C1=C1\CCCCN1 | -46.91%
- [H][C@]12CC[C@]([H])(CN(C(=O)c3ccncc3)C1)N(C(=O)N1CCOCC1)C2 | -7.528%
- CC(C)(C)C(=O)NCCc1ccn(-c2ccccc2)n1 | 103.6%
- N#CC1(NC(=O)c2nccc3ccccc23)CCC2(CC1)OCCO2 | -4.678%
- Cc1ccc(-c2noc(C3CCN3C(=O)c3ccc(=O)[nH]n3)n2)s1 (stereo unspecified) | 9.369%
- O=C(C1CCC2(CCN(Cc3cccnc3)CC2)CO1)N1CCCC1.O=C(O)C(F)(F)F.O=C(O)C(F)(F)F (stereo unspecified) | -78.86%
- CN(Cc1nnc(-c2cccs2)o1)C(C(N)=O)c1cccc(F)c1 (stereo unspecified) | -36.38%
- Cc1cnn(C2CN(CC(O)COc3ccc(C#N)cc3)C2)c1 (stereo unspecified) | -78.64%
- CCS(=O)(=O)N1CCc2c(cccc2NC(=O)NCCO)C1 | 23.95%
- Cc1cccc(-n2c(C)cc(=O)[nH]c2=O)c1C | -1.628%
- CCCNC(=O)Cn1cc(OC)c(=O)cc1CSc1nc(C)cc(C)n1 | -32.07%
- CCC(C)NC(=O)CCc1ccc(OCC(F)(F)F)c(OC)c1 (stereo unspecified) | 15.52%
- c1ccc(-c2nc(CN3CCCC(Cn4cncn4)C3)no2)cc1 (stereo unspecified) | -9.775%
- CC(C)Cc1nc(OCC(=O)O)c(C#N)c2c1CCCC2 | -45.07%
- CC1=Nc2c(c(=O)[nH]n2C(C)C)C(c2ccc3ncccc3c2)S1 (stereo unspecified) | -30.02%
- O=S(=O)(Cc1ccc(F)cc1)N1CCN(CC(O)C2CC2)CC1 (stereo unspecified) | -11.36%
- [H][C@@]12CS(=O)(=O)C[C@]1([H])N(C(=O)Nc1ccc(Cl)cc1)CCN2C(C)=O | -51.66%
- CC(C)(C)c1noc(CCC(=O)N2CCN(Cc3ccco3)CC2)n1 | -8.761%
- O=C(O)C1(Oc2ccc3c(c2)OCO3)CCN(C2CCOCC2)CC1 | -21.07%
- Cc1nc(CC(C)C)cc(C(=O)N2C[C@@H](N(C)C)[C@H](C(C)C)C2)n1 | -85.59%
- Cc1nc(C2CCCN(C(=O)c3ccc(OCC4CC4)nc3)C2)no1 (stereo unspecified) | -22.27%
- COc1cccc([C@@H]2CCN(Cc3cccc(C)n3)C[C@H]2O)c1 | -13.18%
- N#Cc1cccnc1NCc1cccnc1N1CCC(C(N)=O)CC1 | 20.43%
- COCCn1cc(NCc2c[nH]nc2C(C)(C)C)cn1 | -40.64%
- Cc1cnc(C)c(N2CCN(CCCc3ccncc3)CC2)n1 | -15.59%
- COc1ccc(C(=O)N2C[C@@H](O)[C@H](NCc3ncccc3C)C2)cc1 | -3.127%
- CC[C@@H]1N(Cc2cccnc2)CCC[C@]12CCC(=O)N2C.O=C(O)C(F)(F)F.O=C(O)C(F)(F)F | -22.57%
- COC(=O)c1ccc(F)c(S(=O)(=O)Nc2ccc(C(N)=O)cc2)c1 | -70.09%
- CNS(=O)(=O)CCCN(C)Cc1cc(C)ccc1OC | -14.35%
- O=S(=O)(c1cccs1)N1CCCC(c2nccs2)C1 (stereo unspecified) | -5.704%
- Cc1cn(CCn2ccnc2-c2sccc2C)nn1 | -18.68%
- O=C1NCC2(CCCN(Cc3ccccc3F)C2)Oc2ccccc21 (stereo unspecified) | -8.26%

The last 6 entries again:

{"compound": "CC[C@@H]1N(Cc2cccnc2)CCC[C@]12CCC(=O)N2C.O=C(O)C(F)(F)F.O=C(O)C(F)(F)F", "percent effect": -22.57}
{"compound": "COC(=O)c1ccc(F)c(S(=O)(=O)Nc2ccc(C(N)=O)cc2)c1", "percent effect": -70.09}
{"compound": "CNS(=O)(=O)CCCN(C)Cc1cc(C)ccc1OC", "percent effect": -14.35}
{"compound": "O=S(=O)(c1cccs1)N1CCCC(c2nccs2)C1", "stereo": "stereo unspecified", "percent effect": -5.704}
{"compound": "Cc1cn(CCn2ccnc2-c2sccc2C)nn1", "percent effect": -18.68}
{"compound": "O=C1NCC2(CCCN(Cc3ccccc3F)C2)Oc2ccccc21", "stereo": "stereo unspecified", "percent effect": -8.26}